The other results are listed elsewhere or left out.
Target: T1, OsSMF1 (Oryza sativa, UniProt Q6ZLB0 1-436)
T1 sequence: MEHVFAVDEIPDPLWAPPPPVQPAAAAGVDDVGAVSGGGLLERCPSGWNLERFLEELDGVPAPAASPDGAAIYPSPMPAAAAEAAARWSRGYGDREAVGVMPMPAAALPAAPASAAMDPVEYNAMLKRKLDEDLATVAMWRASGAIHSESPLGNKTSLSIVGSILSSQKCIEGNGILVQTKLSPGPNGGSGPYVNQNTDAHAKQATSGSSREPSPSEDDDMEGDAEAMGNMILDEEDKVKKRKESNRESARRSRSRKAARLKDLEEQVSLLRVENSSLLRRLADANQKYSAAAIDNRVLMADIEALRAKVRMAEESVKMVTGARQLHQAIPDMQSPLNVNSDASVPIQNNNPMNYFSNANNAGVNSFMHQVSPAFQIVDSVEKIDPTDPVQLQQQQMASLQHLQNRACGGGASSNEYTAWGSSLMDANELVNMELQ
Assay: protein-binding microarray (RPBM); PBS, 2% BSA, 51.3 ng/ul salmon testes DNA, 50 uM zinc acetate, 200 nM TF, 25 C, 1 h; high values mean tight binding
Conditions: protein: recombinant; tags: N-terminal polyhistidine and DsRed monomer fusion (pET32a); chain copies: 2; label: CyDye5-dUTP incorporated in the synthesized complementary strand; 3' TTTTT single-stranded linker to array surface; dsDNA, one strand shown
Outline: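 Using Ni–NTA, transcription factors fused N-terminally to polyhistidine and DsRed were purified after expression in E. coli BL21-CodonPlus. These were incubated at 200 nM with a blocked, double-stranded custom Agilent array for 1 h at 25 °C in a buffer containing 50 µM zinc acetate, and the array was washed. The binding signal is per-feature fluorescence intensity (arbitrary units) on an Axon 4000B scanner.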

Going from “CATGACAAATTAATCCGGCTGCACGTCACGAGCTCGCGCTCGGAGTCACCTAGTGCAG” to “GGAACAGTACTTGTATGTCACTCCATTCCTCAATGTTATGCGGAGTCACCTAGTGCAG”, the binding signal falls from 6690 fluorescence intensity (a.u.) to 3210 fluorescence intensity (a.u.).

First: ATGGCTCCAATGTGCTTATGCAAATCCCACATGGCAGTCACGGAGTCACCTAGTGCAG
Second: ACCCAACGGTGATGATGTCAGCTGACGTGGCGCCCCGGAGCGGAGTCACCTAGTGCAG
The binding signal of the first is lower: 3730 fluorescence intensity (a.u.) for the first, 40500 fluorescence intensity (a.u.) for the second.

Going from “AGGTAATTAAGCTGCGGCGGCTGATCTGCGCTCGATCCTTCGGAGTCACCTAGTGCAG” to “CTATGGCTGATGGTTTCTAGCAAATCGGTCCTGCATTCAACGGAGTCACCTAGTGCAG”, the binding signal rises from 3430 fluorescence intensity (a.u.) to 16700 fluorescence intensity (a.u.).

Compared with “CGAGCAAAGGGCCCACGGTGTCAGCTCACATCAGCCGGCCCGGAGTCACCTAGTGCAG”, “ACGGGCCAGTCAACGGACACGTCACCCGGTCAGCGCCATCCGGAGTCACCTAGTGCAG” is higher in binding signal: 3500 fluorescence intensity (a.u.) for the first, 16500 fluorescence intensity (a.u.) for the second.

Compared with “TGGCGCTGAGGTAGCTGCCACGTCAGCTGGGGATCGGCCCCGGAGTCACCTAGTGCAG”, “GTCTCCCTCTCCCTCTCCCACCCCGCCTCCCTCCTCGACGCGGAGTCACCTAGTGCAG” is lower in binding signal: 36300 fluorescence intensity (a.u.) for the first, 15300 fluorescence intensity (a.u.) for the second.

Going from “GGCCAGGATGATCGAGCACTTGGTTGTGACACAGAGGGTGCGGAGTCACCTAGTGCAG” to “ATCGCTGGGACACGTCACCTTCCTTTCTATGCTCTCTTGACGGAGTCACCTAGTGCAG”, the binding signal rises from 3220 fluorescence intensity (a.u.) to 25900 fluorescence intensity (a.u.).

Compared with “TGTAACTTTGTCACTGTCACGTGGGTCTAATGATCCCTAGCGGAGTCACCTAGTGCAG”, “GCAGTTTGATCACTTAGCTAGATGATCTCCTGCATGCGATCGGAGTCACCTAGTGCAG” is higher in binding signal: 7840 fluorescence intensity (a.u.) for the first, 10900 fluorescence intensity (a.u.) for the second.

Compared with “GGCACGCTCTTGCGTATCGCCATTGTTCAGGTGAGTCGATCGGAGTCACCTAGTGCAG”, “ATCGTACATGGGCTCTAGACTCAGCACGTGGGGCCAACACCGGAGTCACCTAGTGCAG” is lower in binding signal: 3400 fluorescence intensity (a.u.) for the first, 3330 fluorescence intensity (a.u.) for the second.

First: CGACGCCGACTGACTCACCCGCCGGCGAGCCCACGCCGCCCGGAGTCACCTAGTGCAG
Second: CTTTTGGCTTTCAGAAATCTGAGGTGTGTACTGCAGTCTTCGGAGTCACCTAGTGCAG
The binding signal of the first is higher: 5630 fluorescence intensity (a.u.) for the first, 3650 fluorescence intensity (a.u.) for the second.

Compared with “TATAATATTTGCCTCCACCCATGACGTACGGATGTGGACACGGAGTCACCTAGTGCAG”, “TTCTCCGGCGACACTGCCACTGCCACGCGTCCCTCCCTTCCGGAGTCACCTAGTGCAG” is higher in binding signal: 5200 fluorescence intensity (a.u.) for the first, 10500 fluorescence intensity (a.u.) for the second.

First: TGACTCGGCCGGCCCGGTTGCTGACTCCGCAAATCCACTGCGGAGTCACCTAGTGCAG
Second: GGAGAAGGGGAGGAGAAGAAAAGAAGAGGCGAAGCCCTGCCGGAGTCACCTAGTGCAG
The binding signal of the first is higher: 7140 fluorescence intensity (a.u.) for the first, 3340 fluorescence intensity (a.u.) for the second.

Going from “AAGATGTGATGAGTGACGATGACATATTGGGCCACATAGGCGGAGTCACCTAGTGCAG” to “TAGCACCACATTGTCAAATCATGACGTAATTAGGCTCAAACGGAGTCACCTAGTGCAG”, the binding signal rises from 5010 fluorescence intensity (a.u.) to 5740 fluorescence intensity (a.u.).

First: GGCGGCGCCGACGACTCCGCGCCGCTCGGCCTCATCGTCGCGGAGTCACCTAGTGCAG
Second: ATCATGTCAAAGCACCACGTCAGTGAAACCACTATTAAAACGGAGTCACCTAGTGCAG
The binding signal of the first is lower: 3190 fluorescence intensity (a.u.) for the first, 3720 fluorescence intensity (a.u.) for the second.

First: CTAGCGTCCACCGCCTCTCCGCCACCGCCGCCGCCGCCTCCGGAGTCACCTAGTGCAG
Second: CTCCCGCCGTCTCCGTCACCGTCTACCGTTTGCTCCAGTGCGGAGTCACCTAGTGCAG
The binding signal of the first is higher: 10700 fluorescence intensity (a.u.) for the first, 5160 fluorescence intensity (a.u.) for the second.

Compared with “TTTGTTTTGATATCTTTATATAAAGTAGTATCGGAGTATTCGGAGTCACCTAGTGCAG”, “AGTGGGGATGGGATGTGCAATCCTGGTGCTAGGCGAAATTCGGAGTCACCTAGTGCAG” is lower in binding signal: 3320 fluorescence intensity (a.u.) for the first, 3190 fluorescence intensity (a.u.) for the second.

First: TTGGAGGATAGGAGCTTGGCCAGCGTGACGAGGCAGAAGCCGGAGTCACCTAGTGCAG
Second: TCTATTAAAGCTGGAGATTAAACACCATCGTACTACTTTGCGGAGTCACCTAGTGCAG
The binding signal of the first is higher: 5740 fluorescence intensity (a.u.) for the first, 3800 fluorescence intensity (a.u.) for the second.

Compared with “CCGTCCTGCTCTTCAGACACCGCAGCATCAAGAAGCCGCCCGGAGTCACCTAGTGCAG”, “CTCTCAATTCAAATCACCCACGTCAACAGAAGTAATCAGCCGGAGTCACCTAGTGCAG” is higher in binding signal: 3290 fluorescence intensity (a.u.) for the first, 5670 fluorescence intensity (a.u.) for the second.

Compared with “ATTAGGGTTTTACACCACCTCTCTCCGTGCTCCTCCTCTCCGGAGTCACCTAGTGCAG”, “TTCTAATACCACATAAACGCCACGTAGGACAAAGACTCGGCGGAGTCACCTAGTGCAG” is higher in binding signal: 15100 fluorescence intensity (a.u.) for the first, 17500 fluorescence intensity (a.u.) for the second.

Going from “CTCTCATGGTGGAGCTGCGTGGCATGGTCATGCCAATACTCGGAGTCACCTAGTGCAG” to “GCATATAACTATGATAAACCACGTCAAATTAGGCCCGTTTCGGAGTCACCTAGTGCAG”, the binding signal falls from 6150 fluorescence intensity (a.u.) to 4950 fluorescence intensity (a.u.).

First: CATCAGCAGCAGCAAGCAGCTAATCGCGCACGTACGCACACGGAGTCACCTAGTGCAG
Second: TATAGCTCGCAGTTGGTCGCACGTCAGCAAAACTAGCGTACGGAGTCACCTAGTGCAG
The binding signal of the first is lower: 3970 fluorescence intensity (a.u.) for the first, 15300 fluorescence intensity (a.u.) for the second.

Going from “AAGGCGCGATGTGTATATGACAAATAGGACCAGAAATTAACGGAGTCACCTAGTGCAG” to “ATTCAGTTGGTTTGGGGATTTAGATGTGGGCTCCTTCTTTCGGAGTCACCTAGTGCAG”, the binding signal falls from 8680 fluorescence intensity (a.u.) to 3510 fluorescence intensity (a.u.).

From article PMC7819943, “Rice protein-binding microarrays: a tool to detect cis-acting elements near promoter regions in rice”
